Results taken from patent US5846939A, “Use of a decapeptide with benzodiazepine-type activity for preparing medicines and food supplements” (Societe Cooperative Agricole Laitiere D'Artois Et Des …, priority 1994, dated 1998).
Read-outs that look alike come from different tables or passages of the source. Part of at least one peptide drawing is inferred or uncertain, most often the ends. No end group written: not given here.

Biological target: central benzodiazepine receptor
Experiment: In vitro competition test on the benzodiazepine receptor with 3H-methyl-flunitrazepam ([…] kit)
Format: binding
Conditions: displacement of 3H-methyl-flunitrazepam, one hour at +4° C., read-out: IC50 relative to the central benzodiazepine receptor

Sequence: YLGYLEQLLR [(f91-100)-CNαs1 peptide]
- IC50 (listed as decapeptide of natural origin): 88 µM
- IC50: ~88 µM
